Assays:
in vivo = settings: rat, in vivo; Sprague-Dawley rats, 6 animals per dose; Litchfield-Wilcoxon; read-out: LD50 akute Toxizität
Excerpt: (§1) Die Bestimmung der akuten Toxizitäten erfolgten in Standardmethoden an Ratten des Sprague-Dawley-Stammes. Pro Dosierung wurden 6 Tiere verwendet. Die LD50-Werte wurden nach Lichtfield und Wilcoxon bestimmt. [drawing 8]

[1] = system: Ratten des Sprague-Dawley-Stammes; assay: in vivo; settings: ratio of LD50 (acute toxicity) to ED50 (adjuvant arthritis), rat
Excerpt: as §1

[2] = Gastric ulcerogenic effect; settings: rat, stomach, po
gastrale Ulcera = assay: Gastric ulcerogenic effect; settings: ratio of UD50 (gastric ulcers) to ED50 (adjuvant arthritis), rat

For `COc1ccc2cc([C@H](C)C(=O)O)ccc2c1` [Naproxen, reference compound], the LD50 (in vivo) was 395 mg/kg, the “TI (LD50 /ED50) therapeutischer Index” value [1] was 26 and the TD50 at 24 h [2] was 21 mg/kg. For the same molecule, the “TI(UD50/ED50) therapeutischer Index” value (gastrale Ulcera) was 2.
